At least one structure is not confirmed: it was looked up by name or label, or the drawing left a doubt.
System: NCI-H660 cells
Settings: 6 days

C[C@@H]1C[C@H]2[C@@H]3CCC4=CC(=O)C=C[C@]4(C)[C@@]3(F)[C@@H](O)C[C@]2(C)[C@@]1(O)C(=O)CO [DEX, dexamethasone]
cell viability relative to control: minimal differences
